Measurements as given in publication PMC5788269.
No constants are given. Whether binding was seen depends on the method and setting. Some results given as binding are weak or reduced against the parent protein; the word gives no strength.

By UniProt entry, the sequences of proteins in these tests, tags left out. Where a name states a change or a piece, a line headed by the entry shows the natural chain unless it says otherwise.
UniProt Q06632: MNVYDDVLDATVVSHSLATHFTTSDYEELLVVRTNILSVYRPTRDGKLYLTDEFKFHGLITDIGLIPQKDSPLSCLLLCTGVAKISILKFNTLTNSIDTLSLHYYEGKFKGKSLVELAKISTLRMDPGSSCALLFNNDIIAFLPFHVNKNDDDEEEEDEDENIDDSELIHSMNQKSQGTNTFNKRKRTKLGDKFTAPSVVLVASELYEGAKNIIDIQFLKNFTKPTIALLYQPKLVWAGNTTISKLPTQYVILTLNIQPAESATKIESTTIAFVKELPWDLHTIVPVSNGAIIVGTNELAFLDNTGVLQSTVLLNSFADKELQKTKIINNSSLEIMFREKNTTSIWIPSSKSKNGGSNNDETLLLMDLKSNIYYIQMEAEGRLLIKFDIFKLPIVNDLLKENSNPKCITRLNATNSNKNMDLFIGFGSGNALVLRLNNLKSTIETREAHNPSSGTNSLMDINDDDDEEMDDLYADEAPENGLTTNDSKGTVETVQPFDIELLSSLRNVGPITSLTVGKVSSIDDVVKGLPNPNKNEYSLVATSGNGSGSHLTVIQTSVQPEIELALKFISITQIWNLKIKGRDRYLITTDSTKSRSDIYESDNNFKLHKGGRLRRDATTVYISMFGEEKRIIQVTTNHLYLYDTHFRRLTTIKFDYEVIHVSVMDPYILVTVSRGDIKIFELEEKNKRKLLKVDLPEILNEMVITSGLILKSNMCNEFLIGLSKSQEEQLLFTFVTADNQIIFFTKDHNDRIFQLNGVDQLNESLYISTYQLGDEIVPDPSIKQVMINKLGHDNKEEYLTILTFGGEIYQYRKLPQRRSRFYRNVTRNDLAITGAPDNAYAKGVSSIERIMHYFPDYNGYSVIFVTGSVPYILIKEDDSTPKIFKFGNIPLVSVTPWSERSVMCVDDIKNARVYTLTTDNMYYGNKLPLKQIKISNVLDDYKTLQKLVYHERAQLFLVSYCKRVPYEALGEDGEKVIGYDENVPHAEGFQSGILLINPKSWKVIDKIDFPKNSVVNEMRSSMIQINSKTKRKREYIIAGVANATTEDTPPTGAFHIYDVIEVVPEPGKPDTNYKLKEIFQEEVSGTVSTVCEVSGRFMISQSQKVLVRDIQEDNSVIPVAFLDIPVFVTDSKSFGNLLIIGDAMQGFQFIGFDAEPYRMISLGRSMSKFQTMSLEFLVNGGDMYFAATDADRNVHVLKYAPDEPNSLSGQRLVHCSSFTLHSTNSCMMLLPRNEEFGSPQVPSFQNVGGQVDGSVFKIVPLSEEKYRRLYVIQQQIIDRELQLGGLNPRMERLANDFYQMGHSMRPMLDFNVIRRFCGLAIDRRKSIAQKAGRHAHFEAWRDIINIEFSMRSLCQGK
UniProt P42841: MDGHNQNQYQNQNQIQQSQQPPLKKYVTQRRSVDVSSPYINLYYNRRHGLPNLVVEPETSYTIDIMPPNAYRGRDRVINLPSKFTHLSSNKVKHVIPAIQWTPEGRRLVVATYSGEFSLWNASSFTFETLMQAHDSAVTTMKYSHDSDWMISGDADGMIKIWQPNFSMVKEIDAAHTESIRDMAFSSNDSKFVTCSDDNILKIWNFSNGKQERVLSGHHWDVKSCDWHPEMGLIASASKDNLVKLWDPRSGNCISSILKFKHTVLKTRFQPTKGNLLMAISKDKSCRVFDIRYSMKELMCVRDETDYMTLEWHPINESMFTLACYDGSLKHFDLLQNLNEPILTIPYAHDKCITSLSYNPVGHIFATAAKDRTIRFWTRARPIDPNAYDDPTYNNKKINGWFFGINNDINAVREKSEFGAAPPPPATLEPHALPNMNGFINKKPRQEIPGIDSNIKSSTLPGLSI
UniProt P29468: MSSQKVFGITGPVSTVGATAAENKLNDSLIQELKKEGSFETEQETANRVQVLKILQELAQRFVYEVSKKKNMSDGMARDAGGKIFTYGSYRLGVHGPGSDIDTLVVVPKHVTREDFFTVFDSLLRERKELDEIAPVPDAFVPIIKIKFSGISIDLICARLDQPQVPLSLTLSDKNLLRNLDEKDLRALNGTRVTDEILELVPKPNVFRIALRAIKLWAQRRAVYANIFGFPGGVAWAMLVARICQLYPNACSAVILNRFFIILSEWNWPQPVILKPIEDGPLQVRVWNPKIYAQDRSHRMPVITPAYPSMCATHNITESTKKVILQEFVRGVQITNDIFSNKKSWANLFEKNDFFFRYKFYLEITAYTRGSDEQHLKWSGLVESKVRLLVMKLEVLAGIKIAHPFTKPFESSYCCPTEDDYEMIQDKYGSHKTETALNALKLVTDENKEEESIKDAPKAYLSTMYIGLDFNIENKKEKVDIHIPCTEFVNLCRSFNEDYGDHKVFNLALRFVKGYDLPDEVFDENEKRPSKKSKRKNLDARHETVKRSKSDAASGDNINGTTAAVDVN
UniProt P45976: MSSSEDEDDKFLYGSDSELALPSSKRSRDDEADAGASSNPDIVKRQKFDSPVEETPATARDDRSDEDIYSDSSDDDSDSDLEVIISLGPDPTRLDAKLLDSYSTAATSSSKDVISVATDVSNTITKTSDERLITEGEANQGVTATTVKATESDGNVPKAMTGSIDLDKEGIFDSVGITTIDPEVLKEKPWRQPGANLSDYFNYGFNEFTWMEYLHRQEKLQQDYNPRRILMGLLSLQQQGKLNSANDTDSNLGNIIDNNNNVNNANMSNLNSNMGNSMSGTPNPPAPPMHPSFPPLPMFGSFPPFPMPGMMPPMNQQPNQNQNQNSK
UniProt Q06102: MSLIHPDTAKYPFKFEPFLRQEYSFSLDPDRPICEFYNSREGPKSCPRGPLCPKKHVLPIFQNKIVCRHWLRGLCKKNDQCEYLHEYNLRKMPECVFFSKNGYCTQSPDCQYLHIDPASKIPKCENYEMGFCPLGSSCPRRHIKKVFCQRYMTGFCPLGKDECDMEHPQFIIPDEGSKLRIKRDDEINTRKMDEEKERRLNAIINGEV

Molecular target: polymerase module of CPF (recombinant; Cft1, Pfs2, Pap1, Fip1, Yth1) (yeast) (UniProt Q06632+P42841+P29468+P45976+Q06102)
Assay: pull-down; polymerase module immobilized, incubated with purified MBP, CF IA or Rna14–Rna15; Coomassie-stained SDS-PAGE; both purified

B1: Rna14–Rna15 subcomplex of CF IA (complex, UniProt P25298 1-677; P25299 1-296)
chain 1: MSSSTTPDLLYPSADKVAEPSDNIHGDELRLRERIKDNPTNILSYFQLIQYLETQESYAKVREVYEQFHNTFPFYSPAWTLQLKGELARDEFETVEKILAQCLSGKLENNDLSLWSTYLDYIRRKNNLITGGQEARAVIVKAFQLVMQKCAIFEPKSSSFWNEYLNFLEQWKPFNKWEEQQRIDMLREFYKKMLCVPFDNLEKMWNRYTQWEQEINSLTARKFIGELSAEYMKARSLYQEWLNVTNGLKRASPINLRTANKKNIPQPGTSDSNIQQLQIWLNWIKWERENKLMLSEDMLSQRISYVYKQGIQYMIFSAEMWYDYSMYISENSDRQNILYTALLANPDSPSLTFKLSECYELDNDSESVSNCFDKCTQTLLSQYKKIASDVNSGEDNNTEYEQELLYKQREKLTFVFCVYMNTMKRISGLSAARTVFGKCRKLKRILTHDVYVENAYLEFQNQNDYKTAFKVLELGLKYFQNDGVYINKYLDFLIFLNKDSQIKTLFETSVEKVQDLTQLKEIYKKMISYESKFGNLNNVYSLEKRFFERFPQENLIEVFTSRYQIQNSNLIKKLELTYMYNEEEDSYFSSGNGDGHHGSYNMSSSDRKRLMEETGNNGNFSNKKFKRDSELPTEVLDLLSVIPKRQYFNTNLLDAQKLVNFLNDQVEIPTVESTKSG
chain 2: MNRQSGVNAGVQNNPPSRVVYLGSIPYDQTEEQILDLCSNVGPVINLKMMFDPQTGRSKGYAFIEFRDLESSASAVRNLNGYQLGSRFLKCGYSSNSDISGVSQQQQQQYNNINGNNNNNGNNNNNSNGPDFQNSGNANFLSQKFPELPSGIDVNINMTTPAMMISSELAKKPKEVQLKFLQKFQEWTRAHPEDAVSLLELCPQLSFVTAELLLTNGICKVDDLIPLASRPQEEASATNNNSVNEVVDPAVLNKQKELLKQVLQLNDSQISILPDDERMAIWDLKQKALRGEFGAF
binding: binds
